For at least one compound, name, drawing or mass did not settle the structure.
Legend:
[1] = Non-sink in vitro dissolution test of celecoxib samples in 0.1 M HCl; type: physicochemical; details: sample containing 50 mg celecoxib in 200 ml 0.1 M HCl
[2] = Non-sink in vitro dissolution test of itraconazole samples in 0.1 M HCl; type: physicochemical; details: sample containing 50 mg itraconazole in 200 ml 0.1 M HCl

Cc1ccc(-c2cc(C(F)(F)F)nn2-c2ccc(S(N)(=O)=O)cc2)cc1 [Crystalline CCX, Celecoxib]
mg CCX dissolved ([1]; 5 min): 0.05 ± 0.05 mg | mg CCX dissolved ([1]; 15 min): 0.10 ± 0.08 mg | mg CCX dissolved ([1]; 60 min): 0.13 ± 0.12 mg | mg CCX dissolved ([1]; 300 min): 0.18 ± 0.12 mg

CCC(C)n1ncn(-c2ccc(N3CCN(c4ccc(OCC5COC(Cn6cncn6)(c6ccc(Cl)cc6Cl)O5)cc4)CC3)cc2)c1=O (centres unmarked) [Crystalline ITC, Itraconazole]
mg ITC dissolved ([2]; 5 min): 0.37 ± 0.12 mg | mg ITC dissolved ([2]; 15 min): 0.45 ± 0.03 mg | mg ITC dissolved ([2]; 60 min): 0.46 ± 0.04 mg | mg ITC dissolved ([2]; 300 min): 0.50 ± 0.06 mg
